Test results reported in publication PMC12681554.
Where two headings read alike, the source gives them in different places. No constants are given. Whether binding was seen depends on the method and setting. In cells and extracts the contact can be indirect. A yes stands for co-enrichment or nearness to the bait. Other partners may have been found.

Amino acid sequences for entries named in this document (tags omitted). Residues count along the entry.
UniProt P09429: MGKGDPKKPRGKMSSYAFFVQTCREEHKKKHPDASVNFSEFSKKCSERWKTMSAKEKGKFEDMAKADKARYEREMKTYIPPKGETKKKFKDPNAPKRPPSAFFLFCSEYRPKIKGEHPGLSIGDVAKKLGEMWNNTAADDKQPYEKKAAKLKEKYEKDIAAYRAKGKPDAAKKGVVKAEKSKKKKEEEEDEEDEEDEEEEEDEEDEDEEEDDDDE
UniProt O14641: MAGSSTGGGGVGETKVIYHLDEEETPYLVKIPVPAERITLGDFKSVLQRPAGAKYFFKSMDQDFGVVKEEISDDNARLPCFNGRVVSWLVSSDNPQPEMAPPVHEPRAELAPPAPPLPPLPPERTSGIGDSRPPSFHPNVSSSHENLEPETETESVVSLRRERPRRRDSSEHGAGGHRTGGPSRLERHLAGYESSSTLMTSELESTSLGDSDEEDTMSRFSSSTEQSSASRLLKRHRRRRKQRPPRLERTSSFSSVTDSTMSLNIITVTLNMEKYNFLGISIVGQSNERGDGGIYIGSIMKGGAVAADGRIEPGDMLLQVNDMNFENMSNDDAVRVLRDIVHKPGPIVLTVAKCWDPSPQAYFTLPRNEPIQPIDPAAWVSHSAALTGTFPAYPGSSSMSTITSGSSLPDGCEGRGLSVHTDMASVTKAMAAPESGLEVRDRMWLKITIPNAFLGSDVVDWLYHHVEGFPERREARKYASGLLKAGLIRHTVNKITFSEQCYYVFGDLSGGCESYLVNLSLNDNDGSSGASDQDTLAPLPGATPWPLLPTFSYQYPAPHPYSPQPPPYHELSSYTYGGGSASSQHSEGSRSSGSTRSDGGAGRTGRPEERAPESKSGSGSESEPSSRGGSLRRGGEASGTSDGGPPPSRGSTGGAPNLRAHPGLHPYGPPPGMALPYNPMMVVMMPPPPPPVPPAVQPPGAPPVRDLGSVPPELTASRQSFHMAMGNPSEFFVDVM
UniProt O43432: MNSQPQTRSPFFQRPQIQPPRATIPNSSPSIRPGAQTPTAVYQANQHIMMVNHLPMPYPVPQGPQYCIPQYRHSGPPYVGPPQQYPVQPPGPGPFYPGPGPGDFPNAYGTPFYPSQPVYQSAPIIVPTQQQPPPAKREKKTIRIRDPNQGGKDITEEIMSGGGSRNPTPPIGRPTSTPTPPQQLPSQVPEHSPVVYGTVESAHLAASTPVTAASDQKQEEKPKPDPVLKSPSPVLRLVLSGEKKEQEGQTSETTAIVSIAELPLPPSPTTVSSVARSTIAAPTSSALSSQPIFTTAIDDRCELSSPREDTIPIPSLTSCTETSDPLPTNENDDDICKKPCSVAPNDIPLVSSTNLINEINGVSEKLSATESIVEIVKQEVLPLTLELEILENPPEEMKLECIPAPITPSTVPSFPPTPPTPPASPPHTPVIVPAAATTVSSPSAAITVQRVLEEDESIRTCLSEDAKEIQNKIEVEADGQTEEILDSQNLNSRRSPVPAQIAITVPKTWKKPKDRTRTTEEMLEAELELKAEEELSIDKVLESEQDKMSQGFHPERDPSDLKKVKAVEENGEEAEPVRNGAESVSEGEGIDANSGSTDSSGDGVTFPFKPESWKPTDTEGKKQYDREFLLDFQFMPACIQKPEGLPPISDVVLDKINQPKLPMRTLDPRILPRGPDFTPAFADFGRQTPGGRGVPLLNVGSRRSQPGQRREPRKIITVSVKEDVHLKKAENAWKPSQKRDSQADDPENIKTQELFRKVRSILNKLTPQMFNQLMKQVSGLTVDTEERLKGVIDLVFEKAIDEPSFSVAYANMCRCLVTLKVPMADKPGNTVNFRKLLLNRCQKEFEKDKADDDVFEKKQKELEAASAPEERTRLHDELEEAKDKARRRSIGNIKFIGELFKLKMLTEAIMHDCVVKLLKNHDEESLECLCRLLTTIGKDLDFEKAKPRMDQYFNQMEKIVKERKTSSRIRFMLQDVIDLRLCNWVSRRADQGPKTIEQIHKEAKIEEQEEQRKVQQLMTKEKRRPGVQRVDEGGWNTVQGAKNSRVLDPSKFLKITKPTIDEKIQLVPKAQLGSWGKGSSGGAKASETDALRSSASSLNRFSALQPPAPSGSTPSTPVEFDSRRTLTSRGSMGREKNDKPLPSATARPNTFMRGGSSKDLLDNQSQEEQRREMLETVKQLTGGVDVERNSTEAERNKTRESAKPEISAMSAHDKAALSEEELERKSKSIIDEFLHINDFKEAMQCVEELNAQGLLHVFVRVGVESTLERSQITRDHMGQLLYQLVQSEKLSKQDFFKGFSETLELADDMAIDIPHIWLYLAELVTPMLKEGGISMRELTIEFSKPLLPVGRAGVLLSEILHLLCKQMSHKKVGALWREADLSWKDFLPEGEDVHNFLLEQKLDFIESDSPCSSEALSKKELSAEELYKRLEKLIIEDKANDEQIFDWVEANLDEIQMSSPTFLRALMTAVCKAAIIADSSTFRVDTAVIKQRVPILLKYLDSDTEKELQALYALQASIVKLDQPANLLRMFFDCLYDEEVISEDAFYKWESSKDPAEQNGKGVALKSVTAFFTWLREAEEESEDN
UniProt Q03113: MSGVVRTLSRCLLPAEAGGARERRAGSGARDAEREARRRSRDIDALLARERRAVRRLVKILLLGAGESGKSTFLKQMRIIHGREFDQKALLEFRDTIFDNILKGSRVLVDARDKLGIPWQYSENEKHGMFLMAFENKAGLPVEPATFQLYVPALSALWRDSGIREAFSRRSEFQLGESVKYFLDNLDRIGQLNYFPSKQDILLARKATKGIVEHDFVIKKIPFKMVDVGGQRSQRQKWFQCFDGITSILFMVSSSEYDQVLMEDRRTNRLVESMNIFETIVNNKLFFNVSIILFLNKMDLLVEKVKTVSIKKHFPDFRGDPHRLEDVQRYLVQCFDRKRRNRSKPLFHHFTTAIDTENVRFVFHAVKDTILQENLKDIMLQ
UniProt P04792: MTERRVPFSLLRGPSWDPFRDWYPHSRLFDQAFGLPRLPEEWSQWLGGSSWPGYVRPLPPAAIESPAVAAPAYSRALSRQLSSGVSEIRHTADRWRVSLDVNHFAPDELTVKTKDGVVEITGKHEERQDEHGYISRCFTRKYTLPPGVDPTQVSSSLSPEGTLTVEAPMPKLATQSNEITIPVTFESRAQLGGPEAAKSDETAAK
UniProt Q6UB35, residues 32-978: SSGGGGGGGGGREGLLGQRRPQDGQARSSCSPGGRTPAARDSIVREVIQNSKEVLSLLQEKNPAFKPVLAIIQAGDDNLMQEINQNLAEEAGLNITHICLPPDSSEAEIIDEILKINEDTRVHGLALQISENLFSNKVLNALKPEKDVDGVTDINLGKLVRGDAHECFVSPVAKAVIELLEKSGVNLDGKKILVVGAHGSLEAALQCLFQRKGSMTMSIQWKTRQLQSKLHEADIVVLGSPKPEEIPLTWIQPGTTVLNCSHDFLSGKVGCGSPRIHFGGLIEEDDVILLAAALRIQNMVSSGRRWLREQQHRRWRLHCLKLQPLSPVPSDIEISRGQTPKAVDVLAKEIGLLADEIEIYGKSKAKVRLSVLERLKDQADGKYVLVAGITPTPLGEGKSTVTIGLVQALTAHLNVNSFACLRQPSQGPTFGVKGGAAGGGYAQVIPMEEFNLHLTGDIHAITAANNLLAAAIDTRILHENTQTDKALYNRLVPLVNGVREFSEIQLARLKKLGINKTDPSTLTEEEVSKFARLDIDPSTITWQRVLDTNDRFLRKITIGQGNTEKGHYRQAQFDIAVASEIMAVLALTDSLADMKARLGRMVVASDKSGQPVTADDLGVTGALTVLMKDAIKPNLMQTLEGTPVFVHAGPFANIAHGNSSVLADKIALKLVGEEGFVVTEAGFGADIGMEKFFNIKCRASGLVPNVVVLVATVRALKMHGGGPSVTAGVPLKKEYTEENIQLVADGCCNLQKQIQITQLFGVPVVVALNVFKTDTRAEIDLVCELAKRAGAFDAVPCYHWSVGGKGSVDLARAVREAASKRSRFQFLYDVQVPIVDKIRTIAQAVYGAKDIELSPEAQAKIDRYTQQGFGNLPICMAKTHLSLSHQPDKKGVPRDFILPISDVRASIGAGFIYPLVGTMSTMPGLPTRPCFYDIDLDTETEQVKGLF
UniProt Q9BYG3: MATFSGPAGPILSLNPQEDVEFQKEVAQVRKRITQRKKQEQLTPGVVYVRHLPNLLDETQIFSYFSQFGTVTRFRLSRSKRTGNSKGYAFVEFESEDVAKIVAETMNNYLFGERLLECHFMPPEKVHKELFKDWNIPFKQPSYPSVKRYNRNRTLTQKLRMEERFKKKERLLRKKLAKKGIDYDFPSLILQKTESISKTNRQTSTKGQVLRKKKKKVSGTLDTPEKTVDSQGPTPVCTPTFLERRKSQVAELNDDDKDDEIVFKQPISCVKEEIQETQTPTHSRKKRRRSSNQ
UniProt O43399: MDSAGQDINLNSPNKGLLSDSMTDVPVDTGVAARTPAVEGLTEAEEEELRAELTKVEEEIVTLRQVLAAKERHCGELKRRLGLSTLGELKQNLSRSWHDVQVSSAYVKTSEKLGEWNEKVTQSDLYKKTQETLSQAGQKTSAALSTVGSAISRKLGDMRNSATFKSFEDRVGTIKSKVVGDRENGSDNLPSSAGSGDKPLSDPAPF

B1: DVL1 (protein, UniProt O14640 1-695)
chain: MAETKIIYHMDEEETPYLVKLPVAPERVTLADFKNVLSNRPVHAYKFFFKSMDQDFGVVKEEIFDDNAKLPCFNGRVVSWLVLAEGAHSDAGSQGTDSHTDLPPPLERTGGIGDSRPPSFHPNVASSRDGMDNETGTESMVSHRRERARRRNREEAARTNGHPRGDRRRDVGLPPDSASTALSSELESSSFVDSDEDGSTSRLSSSTEQSTSSRLIRKHKRRRRKQRLRQADRASSFSSITDSTMSLNIVTVTLNMERHHFLGISIVGQSNDRGDGGIYIGSIMKGGAVAADGRIEPGDMLLQVNDVNFENMSNDDAVRVLREIVSQTGPISLTVAKCWDPTPRSYFTVPRADPVRPIDPAAWLSHTAALTGALPRYGTSPCSSAVTRTSSSSLTSSVPGAPQLEEAPLTVKSDMSAVVRVMQLPDSGLEIRDRMWLKITIANAVIGADVVDWLYTHVEGFKERREARKYASSLLKHGFLRHTVNKITFSEQCYYVFGDLCSNLATLNLNSGSSGTSDQDTLAPLPHPAAPWPLGQGYPYQYPGPPPCFPPAYQDPGFSYGSGSTGSQQSEGSKSSGSTRSSRRAPGREKERRAAGAGGSGSESDHTAPSGVGSSWRERPAGQLSRGSSPRSQASATAPGLPPPHPTTKAYTVVGGPPGGPPVRELAAVPPELTGSRQSFQKAMGNPCEFFVDIM
B2: CAT (protein, UniProt P04040 1-527)
chain: MADSRDPASDQMQHWKEQRAAQKADVLTTGAGNPVGDKLNVITVGPRGPLLVQDVVFTDEMAHFDRERIPERVVHAKGAGAFGYFEVTHDITKYSKAKVFEHIGKKTPIAVRFSTVAGESGSADTVRDPRGFAVKFYTEDGNWDLVGNNTPIFFIRDPILFPSFIHSQKRNPQTHLKDPDMVWDFWSLRPESLHQVSFLFSDRGIPDGHRHMNGYGSHTFKLVNANGEAVYCKFHYKTDQGIKNLSVEDAARLSQEDPDYGIRDLFNAIATGKYPSWTFYIQVMTFNQAETFPFNPFDLTKVWPHKDYPLIPVGKLVLNRNPVNYFAEVEQIAFDPSNMPPGIEASPDKMLQGRLFAYPDTHRHRLGPNYLHIPVNCPYRARVANYQRDGPMCMQDNQGGAPNYYPNSFGAPEQQPSALEHSIQYSGEVRRFNTANDDNVTQVRAFYVNVLNEEQRKRLCENIAGHLKDAQIFIQKKAVKNFTEVHPDYGSHIQALLDKYNAEKPKNAIHTFVQSGSHLAAREKANL
B3: TADA2B (protein, UniProt Q86TJ2 1-420)
chain: MAELGKKYCVYCLAEVSPLRFRCTECQDIELCPECFSAGAEIGHHRRYHGYQLVDGGRFTLWGPEAEGGWTSREEQLLLDAIEQFGFGNWEDMAAHVGASRTPQEVMEHYVSMYIHGNLGKACIPDTIPNRVTDHTCPSGGPLSPSLTTPLPPLDISVAEQQQLGYMPLRDDYEIEYDQDAETLISGLSVNYDDDDVEIELKRAHVDMYVRKLKERQRRKNIARDYNLVPAFLGKDKKEKEKALKRKITKEEKELRLKLRPLYQFMSCKEFDDLFENMHKEKMLRAKIRELQRYRRNGITKMEESAEYEAARHKREKRKENKNLAGSKRGKEDGKDSEFAAIENLPGFELLSDREKVLCSSLNLSPARYVTVKTIIIKDHLQKRQGIPSKSRLPSYLDKVLKKRILNFLTESGWISRDAS
B4: CACTIN (protein, UniProt Q8WUQ7 1-758)
chain: MGRDTRSRSRSAGRRGRRRQSQSGSRSRSRSHGRRNRRRREDEGRRRRRRRSRERRSDSEEERWQRSGMRSRSPPRPKWHSRDGSSQSDSGEEQSRGQWARRRRRARSWSPSSSASSSASPGRSQSPRAAAAALSQQQSLQERLRLREERKQQEELMKAFETPEEKRARRLAKKEAKERKKREKMGWGEEYMGYTNTDNPFGDNNLLGTFIWNKALEKKGISHLEEKELKERNKRIQEDNRLELQKVKQLRLEREREKAMREQELEMLQREKEAEHFKTWEEQEDNFHLQQAKLRSKIRIRDGRAKPIDLLAKYISAEDDDLAVEMHEPYTFLNGLTVADMEDLLEDIQVYMELEQGKNADFWRDMTTITEDEISKLRKLEASGKGPGERREGVNASVSSDVQSVFKGKTYNQLQVIFQGIEGKIRAGGPNLDMGYWESLLQQLRAHMARARLRERHQDVLRQKLYKLKQEQGVESEPLFPILKQEPQSPSRSLEPEDAAPTPPGPSSEGGPAEAEVDGATPTEGDGDGDGEGEGEGEAVLMEEDLIQQSLDDYDAGRYSPRLLTAHELPLDAHVLEPDEDLQRLQLSRQQLQVTGDASESAEDIFFRRAKEGMGQDEAQFSVEMPLTGKAYLWADKYRPRKPRFFNRVHTGFEWNKYNQTHYDFDNPPPKIVQGYKFNIFYPDLIDKRSTPEYFLEACADNKDFAILRFHAGPPYEDIAFKIVNREWEYSHRHGFRCQFANGIFQLWFHFKRYRYRR
B5: HCLS1 (protein, UniProt P14317 1-486)
chain: MWKSVVGHDVSVSVETQGDDWDTDPDFVNDISEKEQRWGAKTIEGSGRTEHINIHQLRNKVSEEHDVLRKKEMESGPKASHGYGGRFGVERDRMDKSAVGHEYVAEVEKHSSQTDAAKGFGGKYGVERDRADKSAVGFDYKGEVEKHTSQKDYSRGFGGRYGVEKDKWDKAALGYDYKGETEKHESQRDYAKGFGGQYGIQKDRVDKSAVGFNEMEAPTTAYKKTTPIEAASSGTRGLKAKFESMAEEKRKREEEEKAQQVARRQQERKAVTKRSPEAPQPVIAMEEPAVPAPLPKKISSEAWPPVGTPPSSESEPVRTSREHPVPLLPIRQTLPEDNEEPPALPPRTLEGLQVEEEPVYEAEPEPEPEPEPEPENDYEDVEEMDRHEQEDEPEGDYEEVLEPEDSSFSSALAGSSGCPAGAGAGAVALGISAVAVYDYQGEGSDELSFDPDDVITDIEMVDEGWWRGRCHGHFGLFPANYVKLLE

Experiments:
[1] = molecular target: MycBioID2-HMGB1 (UniProt P09429); assay: proximity labelling; BioID2: doxycycline-induced MycBioID2-HMGB1 in SILAC-labelled THP-1 cells, biotin 24 h, resting (light) or LPS 100 ng/ml (heavy); lysates pooled 1:1, biotinylated proteins taken on streptavidin Dynabeads, on-bead digestion, LC-MS/MS (n = 3)
[2] = molecular target: MycBioID2-HMGB1 (UniProt P09429); assay: as above; remark: listed apart in the source

Row | Molecule | binding [1] | binding [2]
1 | DVL2 (from UniProt O14641 1-736) | binds | –
2 | EIF4G3 (from UniProt O43432 1-1585) | binds | –
3 | GNA12 (from UniProt Q03113 1-381) | binds | –
4 | HSPB1 (from UniProt P04792 1-205) | binds | –
5 | MTHFD1L (from UniProt Q6UB35 32-978) | binds | –
6 | NIFK (from UniProt Q9BYG3 1-293) | binds | –
7 | TPD52L2 (from UniProt O43399 1-206) | binds | –
8 | B1 | – | binds
9 | B2 | – | binds
10 | B3 | – | binds
11 | B4 | – | binds
12 | B5 | – | binds
